Test results reported in PMC7819943, “Rice protein-binding microarrays: a tool to detect cis-acting elements near promoter regions in rice”.
The other results are listed elsewhere or left out.

Target: T1, OsSMF1 (Oryza sativa, UniProt Q6ZLB0 1-436)
T1 sequence: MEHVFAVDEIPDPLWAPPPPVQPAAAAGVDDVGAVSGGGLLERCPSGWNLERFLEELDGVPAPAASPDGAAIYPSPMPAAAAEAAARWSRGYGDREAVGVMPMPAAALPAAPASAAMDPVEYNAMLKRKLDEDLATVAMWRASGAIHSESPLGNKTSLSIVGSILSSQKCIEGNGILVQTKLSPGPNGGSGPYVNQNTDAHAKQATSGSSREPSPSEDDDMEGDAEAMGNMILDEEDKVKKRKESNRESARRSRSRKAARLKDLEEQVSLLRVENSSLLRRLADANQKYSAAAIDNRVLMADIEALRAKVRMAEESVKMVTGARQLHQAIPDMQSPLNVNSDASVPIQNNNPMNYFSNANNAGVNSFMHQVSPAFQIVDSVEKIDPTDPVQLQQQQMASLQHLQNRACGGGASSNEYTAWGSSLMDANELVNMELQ
Assay: protein-binding microarray (RPBM); PBS, 2% BSA, 51.3 ng/ul salmon testes DNA, 50 uM zinc acetate, 200 nM TF, 25 C, 1 h; high values mean tight binding
Details: protein: recombinant; tags: N-terminal polyhistidine and DsRed monomer fusion (pET32a); chain copies: 2; label: CyDye5-dUTP incorporated in the synthesized complementary strand; 3' TTTTT single-stranded linker to array surface; dsDNA, one strand shown
Summary of the method: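 The binding signal for each feature is its fluorescence intensity in arbitrary units. An Axon 4000B scanner was used to read a custom Agilent array that had been made double-stranded with Cy5-dUTP primer extension, blocked with 2% BSA, incubated at 25 °C for 1 h with 200 nM protein in PBS, 2% BSA, salmon testes DNA and 50 µM zinc acetate, and washed. The protein was an N-terminal polyhistidine–DsRed transcription factor fusion from E. coli BL21-CodonPlus, purified on Ni–NTA.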

Sequence	binding signal
AGGCATTTCTGCATCACCACGTCAATTATAAAGCTTGTAGCGGAGTCACCTAGTGCAG	6300 fluorescence intensity (a.u.)
CGAAAGCAGAACACACTACTACAGTGACGCAACTTCCCTCCGGAGTCACCTAGTGCAG	4800 fluorescence intensity (a.u.)
ACGATACCTCCTAGACATGATCTTCCACCTCAAACTATGACGGAGTCACCTAGTGCAG	20700 fluorescence intensity (a.u.)
TAGTAGTAAAACATTTACACAGATCTGAATCATCATCATCCGGAGTCACCTAGTGCAG	3920 fluorescence intensity (a.u.)
CTCCGCGTCGCGCACACGCCACGCAAGAGGACCAGGTCGGCGGAGTCACCTAGTGCAG	7100 fluorescence intensity (a.u.)
AACCACCTTCCTGCGTTGATGACCACTGCTGATCCTGGTGCGGAGTCACCTAGTGCAG	3380 fluorescence intensity (a.u.)
GACGGCAGGCTTGATGGTGACCGTGGCGAGGGCAGGAGCTCGGAGTCACCTAGTGCAG	3810 fluorescence intensity (a.u.)
GGCTGACAGATCTGCTGATGTAGTCGGCTTCACCTCCAGCCGGAGTCACCTAGTGCAG	4160 fluorescence intensity (a.u.)
TGTATTTGCTCTCATTGAATCTAGTCACATTCTGAATCTCCGGAGTCACCTAGTGCAG	4820 fluorescence intensity (a.u.)
ACCGAAACGCTCCGCCCGTAATTTCTGCCGCCGACGCGGCCGGAGTCACCTAGTGCAG	3950 fluorescence intensity (a.u.)
CCCGTCAACGCCACCTCACCGTTGACGTTGCCACTCTCTTCGGAGTCACCTAGTGCAG	12300 fluorescence intensity (a.u.)
AACGTGGGAGGAAATGTTCTGCTAGGAATAACTTGAATAACGGAGTCACCTAGTGCAG	26600 fluorescence intensity (a.u.)
CAGTAGTGTTGGAGGAAGTGCCAGGTGGTGAGGCAGCAGCCGGAGTCACCTAGTGCAG	30600 fluorescence intensity (a.u.)
AATATGTTTGTTTTACACTTTTGTTGGGTGAGTCATAGATCGGAGTCACCTAGTGCAG	9710 fluorescence intensity (a.u.)
GTTCGCGCGCAGGCCGGTGACGCTCCCGTCACCGGCGGCCCGGAGTCACCTAGTGCAG	3180 fluorescence intensity (a.u.)
AAGCTACCCAAAAGACCCTGTGCAACAGTGCAGGGTTGGACGGAGTCACCTAGTGCAG	5910 fluorescence intensity (a.u.)
GATCAACCTTATTTCTGCAAGCAAATCAAAGAAACAAGCACGGAGTCACCTAGTGCAG	41700 fluorescence intensity (a.u.)
GGGCAAATGTGTATCATCACTTATACTTGGCACTAACTTGCGGAGTCACCTAGTGCAG	3230 fluorescence intensity (a.u.)
TTTGGGGTGAAAGTGCATGTGCGCATGGAAGTCGATTACGCGGAGTCACCTAGTGCAG	3300 fluorescence intensity (a.u.)
CTATTTCAGTTGTGTTTGTGCGTGTCTGTACTTTATGTTTCGGAGTCACCTAGTGCAG	3400 fluorescence intensity (a.u.)
GTTATTCACCGTCTGATGTGGATGAACGACTGCACGGTACCGGAGTCACCTAGTGCAG	6720 fluorescence intensity (a.u.)

Quoted from the listing for reference:
Sequence	binding signal
GGCTGACAGATCTGCTGATGTAGTCGGCTTCACCTCCAGCCGGAGTCACCTAGTGCAG	4160 fluorescence intensity (a.u.)
TGTATTTGCTCTCATTGAATCTAGTCACATTCTGAATCTCCGGAGTCACCTAGTGCAG	4820 fluorescence intensity (a.u.)
ACCGAAACGCTCCGCCCGTAATTTCTGCCGCCGACGCGGCCGGAGTCACCTAGTGCAG	3950 fluorescence intensity (a.u.)

Further results.

Sequence	binding signal
GAACACCTACGTCATCCTTCAAGCGACGCAGTCCGACCGCCGGAGTCACCTAGTGCAG	9950 fluorescence intensity (a.u.)
ATAGGCAAGTTTGCTATGATTGCTGGCGTGTCCTATAGGACGGAGTCACCTAGTGCAG	5120 fluorescence intensity (a.u.)
AGGTCAGGGAGCTGGCGGTGGTGGGCGGGACGGGCAAGCTCGGAGTCACCTAGTGCAG	4400 fluorescence intensity (a.u.)
ACGCGCGCCGCGCCGCGCCGTGCCACGCCCGTTCGTCCATCGGAGTCACCTAGTGCAG	5820 fluorescence intensity (a.u.)
GTTTTGATTGCAAACTGTACTAAGACCATCCGTTGTAATTCGGAGTCACCTAGTGCAG	9110 fluorescence intensity (a.u.)
CAAACAACCACAGTGAAACTGAATGGAGTAGTTCATGCCACGGAGTCACCTAGTGCAG	24400 fluorescence intensity (a.u.)
GCATCGTGAGGAGGCGCTCGTCGTCGCCGGCGAAGGCTGCCGGAGTCACCTAGTGCAG	14500 fluorescence intensity (a.u.)
AGCTAATTTTCTAGCAAATATACTTAAACATACGTCTATTCGGAGTCACCTAGTGCAG	32500 fluorescence intensity (a.u.)
CAACTTCACAGACCTCCGACAGGCTGAAAGCAGTGGTCCACGGAGTCACCTAGTGCAG	3260 fluorescence intensity (a.u.)
GATGTGACAGGGATCTTAATTTTAGTCCCTGATCCAAACTCGGAGTCACCTAGTGCAG	3400 fluorescence intensity (a.u.)
GTGTTGAAACTTTGCCACGCGCCTGTATGTTTGTAAGGATCGGAGTCACCTAGTGCAG	5300 fluorescence intensity (a.u.)
TGTGATTGGGCACAAGCACAACAGCGTCACCATGGATCTTCGGAGTCACCTAGTGCAG	4600 fluorescence intensity (a.u.)
TTCGGGTTGAAAATTGCCACGTAAGCGCTACGTTAATTCCCGGAGTCACCTAGTGCAG	12000 fluorescence intensity (a.u.)
GATGGAGTCAAGTCATCATCTGTTCGTAGATCAACTTCCACGGAGTCACCTAGTGCAG	4580 fluorescence intensity (a.u.)
CCTAACAGCATGGAGCATTCATGACGTCAGCTACCACGAGCGGAGTCACCTAGTGCAG	17700 fluorescence intensity (a.u.)
TAGAAAACGGTTTTAACTCCTGCGTCAGCATCTACCGCTCCGGAGTCACCTAGTGCAG	13000 fluorescence intensity (a.u.)
AAGCGGCGATCACAACTGCACGTCATGTTTTCCAAAAGAGCGGAGTCACCTAGTGCAG	4020 fluorescence intensity (a.u.)
AGATAGGTTCTAGCTAATTCACAGTCACAGGTTCTCTTCCCGGAGTCACCTAGTGCAG	3220 fluorescence intensity (a.u.)
ATACAGTCATTGACAACGCATATATGTAGCTAGCACGAGACGGAGTCACCTAGTGCAG	4720 fluorescence intensity (a.u.)
GCCGGTCGCGCCGGCGGAAACCACGACGGGGCTCTGCCTCCGGAGTCACCTAGTGCAG	19700 fluorescence intensity (a.u.)
ACCAAATGTGTATGGGGTACGGATGAATCCTACACCCACGCGGAGTCACCTAGTGCAG	3760 fluorescence intensity (a.u.)
